Binding data for 2 molecules are collected here from PMC2265536.

Results are given in words; binding and its absence hold for the method and conditions named. Binding seen in cells or lysates may run through a third protein. A result given as binding can be weak or reduced; the word gives no strength.

The target in this assay is Drosophila Rsf-1 (D. melanogaster (endogenous in embryos)). In words: co-IP; Drosophila embryonic nuclear extracts (about 200 ug protein); antibodies coupled to Protein-G Agarose; 20 mM Tris-HCl pH 7.9, 0.5 mM EDTA, 150 mM NaCl, 10% glycerol, 3 h at 4 C; washes with 0.01% NP-40; western blot; dRsf-1/ISWI also with 80 ug/ml ethidium bromide.

B1: dMRG15 (protein, UniProt Q9Y0I1 1-424)
chain: MGEVKPAKVENYSTGTDANTLFVDGERVLCFHGPLIYEAKVLKTKPDATPVEYYIHYAGWSKNWDEWVPENRVLKYNDDNVKRRQELARQCGERSKKDNKKGSAKAKKMEQMRNESRASTPSKDSNTSQSTASSTPTTSAGPGSKSEAGSTGTTTTNSTANSTTSRAHRKSTQSTPSTARPGTPSDKKEDPAAAETTEEEGPVAPKKKRMSEQRPSLTGSDVAEKPLPPTTTPSTPTTEPAPCVESEEAYAAKVEVKIKIPDELKHYLTDDWYAVVREHKLLELPAKVTVQQISEQYLAHKKSVKSTSASKEVAINDVLDGIVEYFNVMLGSQLLYKFERTQYADVMQKHPDTPLSELYGSFHLLRLFVRLGSMLSYSALDQQSMQNLLTHVQDFLKFLVKNSSIFFSMSNFINVDPEYVRNAQ
Turning to B1, the binding result is “binds”.

B2: E(Pc) (protein, UniProt Q9VDC6 1-879)
chain: MGSLPQLSIVKGLQQDFVPRALHRIFEEQQLRHADKVALIYQPSTTGQGMAPSQSSYRQMNERANRAARLLVAETHGRFLQPNSDGDFIVAVCMQPSEGLVTTLLAIWKAGGAYLPIDPSFPANRIHHILLEAKPTLVIRDDDIDAGRFQGTPTLSTTELYAKSLQLAGSNLLSEEMLRGGNDHIAIVLYTSGSTGVPKGVRLPHESILNRLQWQWATFPYTANEAVSVFKTALTFVDSIAELWGPLMCGLAILVVPKAVTKDPQRLVALLERYKIRRLVLVPTLLRSLLMYLKMEGGGAAQKLLYNLQIWVCSGEPLSVSLASSFFDYFDEGVHRLYNFYGSTEVLGDVTYFACESKKQLSLYDNVPIGIPLSNTVVYLLDADYRPVKNGEIGEIFASGLNLAAGYVNGRDPERFLENPLAVEKKYARLYRTGDYGSLKNGSIMYEGRTDSQVKIRGHRVDLSEVEKNVAELPLVDKAIVLCYHAGQVDQAILAFVKLRDDAPMVTEMQMEARLKDKLADYMTPQVVILEHVPLLVNGKVDRQALLKTYETANNNEGDSSIVLDFDYSQVPEDLKLTARDLFETVGGVIGRSTRATLAPHSNFYELGGNSLNSIFTVTLLREKGYNIGISEFIAAKNLGEIIEKMAANHDAVQLEEESLNACPHLKMEAVPLRLEHRQEVIDIIVASFYNKADLEQWLKPGVLRTDYSDILNDIWNVLVERDLSFVVYDTNTDRIIGTALNFDARNEPEVDIKSKLLIVFEFLEFCEGPIRDNYLPKGLNQILHSFMMGTAEKLNPRENIACMHFMEHEVLRVAREKQFAGIFTTNTSPLTQQLADVYHYKTLLNFQVNEYVHSDGSRPFGDAPDEQRAIVHWKEVGK
Take B2: the binding entry was “binds”.
